The other results are listed elsewhere or left out.
Assays:
Test in all cases: log2 fold change, soluble protein after heating vs DMSO (PISA); higher = thermal stabilisation; K562 cells, 10 uM, 30 min; active = over 0.2 and 3.5 SD of the protein, either way, in both replicates (recomputed)
[1] = compound: CS(=O)(=O)c1ccc(-c2cnc(N)c(C(=O)Nc3ccccc3)n2)cc1
How it was run: (§1)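 K562 cells at 2×10^6 cells/mL were treated with 10 μM compound for 30 min. Aliquots were heated for 3 min across 48°C-58°C, pooled, and extracted in PBS with 0.5% NP-40 at 4°C; soluble protein was the supernatant after 21,000xg for 90 min. Soluble protein was quantified by TMTpro 16plex LC-MS/MS with channel sums equalised, and reported as log2 fold change in thermal stability against DMSO controls, with values from duplicates.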

Amino acid sequences for entries named in this document (tags omitted). A change or cut given only in a name is not applied to a line headed by its entry.
UniProt P49590: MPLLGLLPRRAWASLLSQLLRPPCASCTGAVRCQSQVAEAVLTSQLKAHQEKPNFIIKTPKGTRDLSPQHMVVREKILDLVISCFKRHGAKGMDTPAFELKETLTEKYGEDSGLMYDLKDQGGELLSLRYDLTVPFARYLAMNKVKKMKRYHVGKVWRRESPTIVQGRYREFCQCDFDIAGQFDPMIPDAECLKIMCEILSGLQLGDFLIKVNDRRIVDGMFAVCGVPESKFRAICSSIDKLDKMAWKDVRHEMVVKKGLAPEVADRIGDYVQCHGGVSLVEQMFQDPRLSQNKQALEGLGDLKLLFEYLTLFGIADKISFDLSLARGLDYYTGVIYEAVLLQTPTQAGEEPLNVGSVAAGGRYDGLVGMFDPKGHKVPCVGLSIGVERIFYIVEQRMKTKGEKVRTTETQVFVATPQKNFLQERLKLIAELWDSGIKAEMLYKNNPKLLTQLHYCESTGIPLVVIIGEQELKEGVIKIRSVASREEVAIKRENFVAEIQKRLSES
UniProt Q7Z4H3: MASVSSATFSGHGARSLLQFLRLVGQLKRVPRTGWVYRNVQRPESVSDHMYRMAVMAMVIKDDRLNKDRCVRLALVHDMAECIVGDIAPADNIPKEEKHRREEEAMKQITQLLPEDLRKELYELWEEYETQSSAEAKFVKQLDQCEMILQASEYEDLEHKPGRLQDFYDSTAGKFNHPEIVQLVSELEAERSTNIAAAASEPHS
UniProt Q9Y450, whole entry, looked up: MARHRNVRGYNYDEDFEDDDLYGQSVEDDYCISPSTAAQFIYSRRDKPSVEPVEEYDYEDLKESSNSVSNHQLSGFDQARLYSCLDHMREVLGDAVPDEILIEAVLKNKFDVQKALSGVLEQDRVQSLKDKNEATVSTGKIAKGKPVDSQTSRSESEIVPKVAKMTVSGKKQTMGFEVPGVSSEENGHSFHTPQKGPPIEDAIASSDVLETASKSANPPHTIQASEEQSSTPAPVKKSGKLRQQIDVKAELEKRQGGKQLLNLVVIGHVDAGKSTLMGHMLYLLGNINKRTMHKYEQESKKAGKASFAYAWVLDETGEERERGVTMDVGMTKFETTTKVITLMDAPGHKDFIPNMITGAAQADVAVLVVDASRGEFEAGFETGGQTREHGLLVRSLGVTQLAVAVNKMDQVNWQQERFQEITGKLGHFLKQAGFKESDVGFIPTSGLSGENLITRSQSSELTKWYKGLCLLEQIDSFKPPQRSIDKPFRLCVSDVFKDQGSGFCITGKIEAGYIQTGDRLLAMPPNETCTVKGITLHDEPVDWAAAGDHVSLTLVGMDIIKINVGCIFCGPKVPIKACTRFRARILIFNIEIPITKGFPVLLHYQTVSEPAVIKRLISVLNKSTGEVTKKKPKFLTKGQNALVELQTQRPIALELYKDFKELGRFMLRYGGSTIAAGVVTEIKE
UniProt Q9P035: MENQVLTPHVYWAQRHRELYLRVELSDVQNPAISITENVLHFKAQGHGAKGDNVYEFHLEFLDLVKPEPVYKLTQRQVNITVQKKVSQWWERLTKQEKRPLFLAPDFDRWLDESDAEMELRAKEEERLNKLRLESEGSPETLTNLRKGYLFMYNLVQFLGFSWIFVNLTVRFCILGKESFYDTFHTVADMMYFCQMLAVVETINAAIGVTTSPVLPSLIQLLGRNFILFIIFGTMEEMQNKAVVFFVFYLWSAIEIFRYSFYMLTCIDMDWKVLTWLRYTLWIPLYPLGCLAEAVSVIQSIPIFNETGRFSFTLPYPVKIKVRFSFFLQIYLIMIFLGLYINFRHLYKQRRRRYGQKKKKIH
UniProt Q9UJ83: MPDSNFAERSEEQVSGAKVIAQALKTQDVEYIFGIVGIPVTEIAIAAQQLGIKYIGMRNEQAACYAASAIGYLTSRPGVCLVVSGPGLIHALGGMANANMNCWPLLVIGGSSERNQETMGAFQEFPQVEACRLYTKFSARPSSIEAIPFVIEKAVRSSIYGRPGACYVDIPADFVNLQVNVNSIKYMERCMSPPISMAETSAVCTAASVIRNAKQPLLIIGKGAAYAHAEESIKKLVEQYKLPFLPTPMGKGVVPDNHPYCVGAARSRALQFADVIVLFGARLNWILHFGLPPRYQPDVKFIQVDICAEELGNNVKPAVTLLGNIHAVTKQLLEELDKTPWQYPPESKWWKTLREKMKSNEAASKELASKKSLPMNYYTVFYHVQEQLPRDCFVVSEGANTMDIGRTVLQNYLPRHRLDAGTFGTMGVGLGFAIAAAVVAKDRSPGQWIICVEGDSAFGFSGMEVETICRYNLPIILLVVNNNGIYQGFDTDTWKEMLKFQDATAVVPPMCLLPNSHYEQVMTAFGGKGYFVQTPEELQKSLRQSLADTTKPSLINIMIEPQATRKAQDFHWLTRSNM
UniProt P02042: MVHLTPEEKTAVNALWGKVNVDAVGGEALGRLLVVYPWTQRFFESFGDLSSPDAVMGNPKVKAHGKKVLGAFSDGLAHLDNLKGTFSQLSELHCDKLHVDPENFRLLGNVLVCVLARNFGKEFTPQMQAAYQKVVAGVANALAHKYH
UniProt Q16774: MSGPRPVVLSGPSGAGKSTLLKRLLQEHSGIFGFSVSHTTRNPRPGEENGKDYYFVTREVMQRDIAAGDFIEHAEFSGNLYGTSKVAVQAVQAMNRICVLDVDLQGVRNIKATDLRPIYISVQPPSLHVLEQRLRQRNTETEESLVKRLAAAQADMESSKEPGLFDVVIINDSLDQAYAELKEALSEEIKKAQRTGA
UniProt Q969Y2: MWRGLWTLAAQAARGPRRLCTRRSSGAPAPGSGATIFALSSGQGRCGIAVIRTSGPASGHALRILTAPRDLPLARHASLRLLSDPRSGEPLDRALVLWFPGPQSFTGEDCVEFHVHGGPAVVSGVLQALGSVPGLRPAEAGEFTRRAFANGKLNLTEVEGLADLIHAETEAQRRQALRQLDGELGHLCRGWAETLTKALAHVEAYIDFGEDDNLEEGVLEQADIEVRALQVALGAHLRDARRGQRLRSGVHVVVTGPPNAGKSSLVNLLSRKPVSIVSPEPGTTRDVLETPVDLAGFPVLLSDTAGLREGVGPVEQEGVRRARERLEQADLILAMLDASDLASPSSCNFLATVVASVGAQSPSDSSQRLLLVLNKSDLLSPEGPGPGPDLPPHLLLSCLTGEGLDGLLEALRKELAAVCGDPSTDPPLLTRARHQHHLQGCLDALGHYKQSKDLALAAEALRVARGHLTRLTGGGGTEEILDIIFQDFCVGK
UniProt P46976: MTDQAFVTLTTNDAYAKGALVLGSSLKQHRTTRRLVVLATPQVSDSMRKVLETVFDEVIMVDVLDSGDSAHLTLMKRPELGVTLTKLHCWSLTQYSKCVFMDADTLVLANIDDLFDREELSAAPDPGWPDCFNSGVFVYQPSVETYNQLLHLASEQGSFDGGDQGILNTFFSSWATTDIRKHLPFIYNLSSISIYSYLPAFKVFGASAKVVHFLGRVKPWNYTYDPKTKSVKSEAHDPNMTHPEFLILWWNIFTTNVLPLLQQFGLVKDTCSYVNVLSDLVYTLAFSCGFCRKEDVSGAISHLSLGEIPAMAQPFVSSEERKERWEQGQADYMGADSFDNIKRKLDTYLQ
UniProt Q96CS2: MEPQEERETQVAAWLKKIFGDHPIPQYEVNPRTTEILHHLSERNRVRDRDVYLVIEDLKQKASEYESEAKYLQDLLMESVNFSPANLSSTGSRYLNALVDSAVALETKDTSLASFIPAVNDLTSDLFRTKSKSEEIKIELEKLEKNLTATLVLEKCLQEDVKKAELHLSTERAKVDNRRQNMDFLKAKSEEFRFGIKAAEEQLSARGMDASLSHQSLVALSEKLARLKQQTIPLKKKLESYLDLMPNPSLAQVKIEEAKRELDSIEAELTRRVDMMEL
UniProt Q9P2D3: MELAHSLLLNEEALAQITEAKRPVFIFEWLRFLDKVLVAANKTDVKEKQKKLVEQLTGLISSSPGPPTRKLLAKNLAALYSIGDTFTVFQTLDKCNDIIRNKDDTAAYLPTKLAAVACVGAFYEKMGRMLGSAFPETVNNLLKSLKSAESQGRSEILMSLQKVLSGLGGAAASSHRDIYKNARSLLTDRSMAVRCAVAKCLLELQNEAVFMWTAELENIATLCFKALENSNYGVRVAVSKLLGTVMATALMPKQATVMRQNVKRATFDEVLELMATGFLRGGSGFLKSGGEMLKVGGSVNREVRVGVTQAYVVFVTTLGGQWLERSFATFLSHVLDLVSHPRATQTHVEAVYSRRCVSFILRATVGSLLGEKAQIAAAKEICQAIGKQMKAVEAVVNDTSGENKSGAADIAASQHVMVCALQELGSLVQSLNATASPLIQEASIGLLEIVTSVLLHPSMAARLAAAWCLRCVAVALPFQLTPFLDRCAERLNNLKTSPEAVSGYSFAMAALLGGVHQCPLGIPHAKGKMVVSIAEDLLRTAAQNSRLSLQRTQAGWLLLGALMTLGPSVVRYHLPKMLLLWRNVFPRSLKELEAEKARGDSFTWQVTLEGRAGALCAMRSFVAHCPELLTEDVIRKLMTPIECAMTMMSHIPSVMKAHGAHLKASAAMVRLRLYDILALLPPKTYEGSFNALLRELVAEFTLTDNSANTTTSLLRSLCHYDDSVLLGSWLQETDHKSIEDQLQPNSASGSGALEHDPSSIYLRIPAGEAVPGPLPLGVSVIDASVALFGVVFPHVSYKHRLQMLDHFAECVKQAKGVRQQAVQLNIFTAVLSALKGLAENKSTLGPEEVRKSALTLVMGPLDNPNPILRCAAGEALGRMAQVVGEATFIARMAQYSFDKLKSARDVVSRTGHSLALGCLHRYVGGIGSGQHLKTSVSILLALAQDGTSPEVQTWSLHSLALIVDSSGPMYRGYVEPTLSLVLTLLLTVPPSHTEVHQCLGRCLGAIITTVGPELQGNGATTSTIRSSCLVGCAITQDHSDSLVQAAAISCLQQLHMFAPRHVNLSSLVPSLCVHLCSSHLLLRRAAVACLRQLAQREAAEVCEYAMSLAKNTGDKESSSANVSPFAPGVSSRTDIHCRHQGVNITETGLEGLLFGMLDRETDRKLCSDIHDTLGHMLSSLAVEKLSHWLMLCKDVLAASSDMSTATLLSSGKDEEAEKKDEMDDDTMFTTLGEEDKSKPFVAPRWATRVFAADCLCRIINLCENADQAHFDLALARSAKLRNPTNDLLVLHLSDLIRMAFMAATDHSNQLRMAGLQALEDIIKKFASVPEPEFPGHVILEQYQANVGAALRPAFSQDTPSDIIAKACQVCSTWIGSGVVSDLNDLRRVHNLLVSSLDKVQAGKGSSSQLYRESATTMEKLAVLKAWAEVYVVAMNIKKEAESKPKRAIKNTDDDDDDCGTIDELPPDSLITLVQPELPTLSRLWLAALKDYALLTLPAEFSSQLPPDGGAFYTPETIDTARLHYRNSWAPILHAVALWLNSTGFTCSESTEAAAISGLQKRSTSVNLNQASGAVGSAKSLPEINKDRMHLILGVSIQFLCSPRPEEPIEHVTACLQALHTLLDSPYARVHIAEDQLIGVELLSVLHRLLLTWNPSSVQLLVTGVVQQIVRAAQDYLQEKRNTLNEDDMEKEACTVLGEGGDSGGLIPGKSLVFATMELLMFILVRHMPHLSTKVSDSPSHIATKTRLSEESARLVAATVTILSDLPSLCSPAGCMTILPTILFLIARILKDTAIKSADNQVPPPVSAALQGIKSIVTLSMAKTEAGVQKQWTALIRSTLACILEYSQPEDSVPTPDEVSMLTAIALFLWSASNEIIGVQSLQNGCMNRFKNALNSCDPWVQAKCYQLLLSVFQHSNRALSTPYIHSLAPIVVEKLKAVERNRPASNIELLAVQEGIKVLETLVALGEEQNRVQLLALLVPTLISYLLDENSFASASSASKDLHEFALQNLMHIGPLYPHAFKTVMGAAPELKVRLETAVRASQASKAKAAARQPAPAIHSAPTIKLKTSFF
UniProt O00165, whole entry, looked up: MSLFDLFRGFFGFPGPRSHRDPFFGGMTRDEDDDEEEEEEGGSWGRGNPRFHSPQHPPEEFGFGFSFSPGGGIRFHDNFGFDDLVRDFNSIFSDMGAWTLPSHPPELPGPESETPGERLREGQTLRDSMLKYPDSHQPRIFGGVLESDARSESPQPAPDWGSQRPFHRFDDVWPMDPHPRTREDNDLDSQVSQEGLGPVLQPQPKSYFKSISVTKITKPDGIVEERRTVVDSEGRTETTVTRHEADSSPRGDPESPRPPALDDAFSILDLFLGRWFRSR

crizotinib = compound: C[C@@H](Oc1cc(-c2cnn(C3CCNCC3)c2)cnc1N)c1c(Cl)ccc(F)c1Cl [crizotinib]
How it was run: as §1

[2] = compound: C[C@@H]1COCCN1C2=NC(=NC(=C2)C3(CC3)S(=O)(=O)C)C4=C5C=CNC5=CC=C4
How it was run: as §1

[3] = compound: C[C@H](C1=CC=C(C=C1)C(=O)NC2=C3C=CNC3=NC=C2)N
How it was run: as §1

duvelisib = compound: C[C@H](Nc1ncnc2nc[nH]c12)c1cc2cccc(Cl)c2c(=O)n1-c1ccccc1 [duvelisib]
How it was run: as §1

tozasertib = compound: Cc1cc(Nc2cc(N3CCN(C)CC3)nc(Sc3ccc(NC(=O)C4CC4)cc3)n2)n[nH]1 [tozasertib]
How it was run: as §1

[4] = compound: Cc1cc(SCc2sc(-c3ccc(C(F)(F)F)cc3)nc2C)ccc1OCC(=O)O
How it was run: as §1

doramapimod = compound: Cc1ccc(-n2nc(C(C)(C)C)cc2NC(=O)Nc2ccc(OCCN3CCOCC3)c3ccccc23)cc1 [doramapimod]
How it was run: as §1

ispinesib = compound: Cc1ccc(C(=O)N(CCCN)[C@@H](c2nc3cc(Cl)ccc3c(=O)n2Cc2ccccc2)C(C)C)cc1 [ispinesib]
How it was run: as §1

bafetinib = compound: Cc1ccc(NC(=O)c2ccc(CN3CC[C@H](N(C)C)C3)c(C(F)(F)F)c2)cc1Nc1nccc(-c2cncnc2)n1 [bafetinib]
How it was run: as §1

nilotinib = compound: Cc1cn(-c2cc(NC(=O)c3ccc(C)c(Nc4nccc(-c5cccnc5)n4)c3)cc(C(F)(F)F)c2)cn1 [nilotinib]
How it was run: as §1

[5] = compound: Cc1nc(Nc2n[nH]c3c2CN(C(=O)N[C@H](CN(C)C)c2ccccc2)C3(C)C)c2sccc2n1
How it was run: as §1

dasatinib = compound: Cc1nc(Nc2ncc(C(=O)Nc3c(C)cccc3Cl)s2)cc(N2CCN(CCO)CC2)n1 [dasatinib]
How it was run: as §1

[6] = compound: Cc1ncc(-c2ccnc(Nc3ccc(S(C)(=O)=O)cc3)n2)n1C(C)C
How it was run: as §1

[7] = compound: Cn1cc(-c2ccc3c(c2)CCN3C(=O)Cc2cccc(C(F)(F)F)c2)c2c(N)ncnc21
How it was run: as §1

[8] = compound: Cn1cc(-c2ccc3nnc(C(F)(F)c4ccc5ncccc5c4)n3n2)cn1
How it was run: as §1

tipifarnib = compound: Cn1cncc1[C@@](N)(c1ccc(Cl)cc1)c1ccc2c(c1)c(-c1cccc(Cl)c1)cc(=O)n2C [tipifarnib]
How it was run: as §1

mubritinib = compound: FC(F)(F)c1ccc(/C=C/c2nc(COc3ccc(CCCCn4ccnn4)cc3)co2)cc1 [mubritinib]
How it was run: as §1

gandotinib = compound: Cc1cc(Nc2cc(CN3CCOCC3)c3nc(C)c(Cc4ccc(Cl)cc4F)n3n2)n[nH]1 [gandotinib]
How it was run: as §1

[9] = compound: Cc1cccc(CC(=O)N2CCc3c2ccc(-c2cn(C)c4ncnc(N)c24)c3F)n1
How it was run: as §1

Measured: log2 fold change

HAUS6 (UniProt Q7Z4H7)
inactive: [1] -0.018 | crizotinib -0.104 | [2] -0.116 | [3] 0.309 | duvelisib -0.074 | tozasertib 0.135 | [4] 0.104 | doramapimod 0.198 | ispinesib -0.273 | bafetinib 0.018 | nilotinib -0.058 | [5] -0.103 | dasatinib 0.001 | [6] -0.023 | [7] -0.311 | [8] -0.011 | tipifarnib -0.087 | mubritinib -0.019

HARS2 (UniProt P49590)
inactive: [1] 0.006 | crizotinib 0.083 | [2] -0.01 | [3] 0.036 | duvelisib 0.007 | gandotinib -0.02 | tozasertib -0.014 | [4] -0.011 | doramapimod -0.064 | ispinesib -0.016 | bafetinib -0.029 | [9] -0.092 | nilotinib -0.002 | [5] 0.052 | dasatinib 0.034 | [6] 0.055 | [7] 0.038 | [8] 0.015 | tipifarnib 0.054 | mubritinib 0.085

HDDC2 (UniProt Q7Z4H3)
inactive: [1] 0.044 | crizotinib -0.058 | [2] 0.106 | [3] -0.103 | gandotinib 0.032 | [4] 0.024 | doramapimod 0.031 | ispinesib 0.228 | bafetinib -0.015 | [9] 0.039 | nilotinib 0.057 | [5] -0.005 | dasatinib -0.01 | [6] -0.003 | [7] 0.069 | [8] -0.008 | tipifarnib -0.091 | mubritinib 0.043

HBS1L isoform 2 (UniProt Q9Y450)
inactive: [1] 0.04 | crizotinib 0.047 | [2] 0.011 | [3] -0.143 | duvelisib 0.061 | gandotinib -0.001 | tozasertib -0.059 | [4] -0.178 | doramapimod -0.037 | ispinesib -0.073 | bafetinib -0.114 | [9] 0.065 | nilotinib -0.079 | [5] 0.173 | dasatinib -0.366 | [6] 0.035 | [7] 0.03 | [8] -0.027 | tipifarnib -0.031 | mubritinib -0.114

HACD3 (UniProt Q9P035)
inactive: [1] 0.017 | crizotinib 0.046 | [2] -0.033 | [3] -0.055 | duvelisib 0.035 | gandotinib -0.101 | tozasertib 0.003 | [4] 0.007 | doramapimod 0.051 | ispinesib -0.047 | bafetinib -0.052 | [9] 0.006 | nilotinib -0.081 | [5] 0.014 | dasatinib 0.013 | [6] 0.007 | [7] -0.011 | [8] 0.05 | tipifarnib -0.051 | mubritinib 0.012

HBS1L (UniProt Q9Y450)
inactive: [1] 0.066 | crizotinib -0.074 | [2] -0.007 | [3] -0.029 | duvelisib 0.009 | gandotinib -0.038 | tozasertib -0.011 | [4] 0.014 | doramapimod -0.017 | ispinesib 0.007 | bafetinib 0.023 | [9] 0.026 | nilotinib -0.003 | [5] 0.034 | dasatinib -0.038 | [6] 0.016 | [7] 0.027 | [8] 0.025 | tipifarnib -0.088 | mubritinib 0.023

HACL1 (UniProt Q9UJ83)
inactive: [1] -0.023 | crizotinib 0.012 | [2] 0.028 | [3] -0.055 | duvelisib -0.02 | gandotinib -0.008 | tozasertib 0.001 | [4] -0.046 | doramapimod 0.012 | ispinesib 0.025 | bafetinib 0.024 | [9] 0.018 | nilotinib -0.025 | [5] 0.021 | dasatinib 0.013 | [6] -0.028 | [7] 0.031 | [8] -0.027 | tipifarnib -0.011 | mubritinib 0.028

HBD (UniProt P02042)
inactive: [1] -0.043 | crizotinib 0.153 | [2] 0.12 | [3] 0.007 | duvelisib 0.117 | gandotinib 0.327 | tozasertib 0.158 | [4] -0.023 | doramapimod -0.095 | ispinesib 0.249 | bafetinib -0.039 | [9] -0.013 | nilotinib 0.034 | [5] 0.006 | dasatinib 0.054 | [6] -0.015 | [7] 0.161 | [8] 0.203 | tipifarnib -0.058 | mubritinib -0.017

GUK1 isoform 2 (UniProt Q16774)
inactive: [1] 0.13 | crizotinib -0.007 | [2] 0.161 | [3] 0.049 | gandotinib -0.03 | [4] 0.102 | doramapimod -0.004 | ispinesib 0.012 | bafetinib 0.134 | [9] 0.053 | nilotinib 0.226 | [5] -0.056 | dasatinib -0.109 | [6] 0.054 | [7] 0.058 | [8] -0.007 | tipifarnib -0.15
active: mubritinib 0.397

GTPBP3 isoform 2 (UniProt Q969Y2)
inactive: [1] 0.018 | crizotinib 0.077 | [2] 0.058 | [3] -0.03 | duvelisib 0.036 | gandotinib -0.018 | tozasertib 0.005 | [4] -0.045 | doramapimod -0.031 | ispinesib 0.019 | bafetinib -0.032 | [9] -0.039 | nilotinib -0.028 | [5] -0.008 | dasatinib -0.018 | [6] -0.006 | [7] 0.061 | [8] 0.032 | tipifarnib 0.036 | mubritinib 0.013

Retrieved one by one from the list above, two records:
HBS1L (UniProt Q9Y450)
inactive: [1] 0.066 | crizotinib -0.074 | [2] -0.007 | [3] -0.029 | duvelisib 0.009 | gandotinib -0.038 | tozasertib -0.011 | [4] 0.014 | doramapimod -0.017 | ispinesib 0.007 | bafetinib 0.023 | [9] 0.026 | nilotinib -0.003 | [5] 0.034 | dasatinib -0.038 | [6] 0.016 | [7] 0.027 | [8] 0.025 | tipifarnib -0.088 | mubritinib 0.023

HBD (UniProt P02042)
inactive: [1] -0.043 | crizotinib 0.153 | [2] 0.12 | [3] 0.007 | duvelisib 0.117 | gandotinib 0.327 | tozasertib 0.158 | [4] -0.023 | doramapimod -0.095 | ispinesib 0.249 | bafetinib -0.039 | [9] -0.013 | nilotinib 0.034 | [5] 0.006 | dasatinib 0.054 | [6] -0.015 | [7] 0.161 | [8] 0.203 | tipifarnib -0.058 | mubritinib -0.017

(list continues)

GYG1 (UniProt P46976)
inactive: [1] -0.223 | crizotinib -0.037 | [2] -0.15 | [3] 0.018 | gandotinib -0.12 | [4] 0.09 | doramapimod 0.072 | ispinesib -0.12 | bafetinib 0.237 | [9] 0.035 | [5] -0.012 | dasatinib 0.052 | [6] -0.297 | [7] -0.06 | [8] -0.11 | tipifarnib -0.009 | mubritinib -0.104
active: nilotinib 0.635

HERC1 (UniProt Q15751)
inactive: [1] 0.018 | crizotinib -0.064 | [2] -0.009 | [3] 0.022 | duvelisib -0.015 | gandotinib 0.033 | tozasertib 0.042 | [4] 0.049 | doramapimod 0.008 | ispinesib 0.059 | bafetinib -0.023 | [9] 0.023 | nilotinib -0.033 | [5] -0.034 | dasatinib -0.02 | [6] -0.004 | [7] -0.053 | [8] -0.045 | tipifarnib -0.007 | mubritinib 0.034

HAUS1 (UniProt Q96CS2)
inactive: [1] -0.061 | crizotinib -0.037 | [2] -0.071 | [3] 0.056 | duvelisib -0.009 | gandotinib -0.024 | tozasertib -0.015 | [4] 0.043 | doramapimod 0.009 | ispinesib -0.041 | bafetinib -0.17 | [9] 0 | nilotinib 0.003 | [5] -0.119 | dasatinib 0.083 | [6] 0.058 | [7] 0.047 | [8] -0.014 | tipifarnib -0.006 | mubritinib -0.005

HEATR5B (UniProt Q9P2D3)
inactive: [1] 0.055 | crizotinib -0.058 | [2] -0.11 | [3] 0.103 | gandotinib -0.039 | [4] 0.036 | doramapimod -0.015 | ispinesib -0.021 | bafetinib -0.007 | [9] 0.014 | nilotinib -0.049 | [5] -0.066 | dasatinib -0.119 | [6] 0.072 | [7] -0.029 | [8] -0.012 | tipifarnib -0.052 | mubritinib 0.034

HAX1 (UniProt O00165)
inactive: [1] 0.02 | crizotinib -0.235 | [2] -0.043 | [3] 0.16 | gandotinib -0.174 | [4] 0.014 | doramapimod 0.035 | bafetinib -0.103 | [9] 0.029 | nilotinib -0.113 | [5] -0.174 | dasatinib -0.044 | [6] 0.069 | [7] -0.028 | [8] -0.068 | tipifarnib -0.112 | mubritinib 0.001
active: ispinesib -0.59
